Test results published in the supplement of paper PMC10338343.
± gives the standard deviation. The entries are a selection whose mix differs from that of the whole data set. Many entries were measured with a wide error.

System: MIWI (PIWIL1) piRISC loaded with L1MC piRNA (30 nt)
Assay: pre-steady-state target cleavage rate (min^-1); MIWI and MILI are mouse PIWI proteins and EfPiwi is from a freshwater sponge; tags in brackets are library labels; higher = faster piRNA-guided slicing of the target
Conditions: guide: L1MC piRNA 5'p-UAACUAAAUACUAUGCAAGCUGUAGGUCCU
How it was run: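 The method was Cleave-'n-Seq, in which uncleaved targets from a transcribed, DNA-blocked target RNA library were sequenced after exposure to active affinity-purified piRISC carrying one synthetic guide, with or without GTSF1 partner protein. Reactions contained 0.1 nM library, 1 nM piRISC and, where present, 500 nM GTSF1 in HEPES–potassium acetate buffer at 33 °C for 0–8 or 0–960 min. Reads were normalised to depth and to weakly complementary targets, three trials were pooled, and k3 was capped at 0.0001 min^-1. The pre-steady-state cleavage rate came from a burst-and-steady-state fit.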

[1] = auxiliary factor: 500 nM mouse GTSF1
[2] = auxiliary factor: none (no GTSF1)

Sequence | pre-steady-state target cleavage rate [1] | pre-steady-state target cleavage rate [2]
UCGAGCUACAGCUUGCAUAGUAUUUAGAAA | 0.407 ± 0.039 | 0.0061 ± 0.0023
UGGACCUACAGCUUGCAUAGUAUUAAGUUA | 0.719 ± 0.06 | 0.0363 ± 0.006
UGGACCUACAGCUUGCAUACAUUUUAGUUA | 0.00213 ± 0.0028 | 0.000283 ± 0.011
UCGACCAUACAGCUUGCAUAGUAUUUAGUUA | 0.86 ± 0.039 | 0.0901 ± 0.015
AGGACCUACAGCUUGGUUAGUAUUUACAAA | 0.0786 ± 0.021 | 0.000943 ± 0.0052
UGGACCAACAGCUUGCAUAGUAUUUACUUA | 0.299 ± 0.018 | 0.0367 ± 0.0063
UCCACGUACAGCUUGCAUAGUAUUUAGUUA | 1.35 ± 0.047 | 0.0658 ± 0.0097
AGGACCUACAGCUAGGAUAGUAUUUAGUUA | 1.09 ± 0.06 | 0.0102 ± 0.0018
UGCACCUACAGCUUGGAUAGUAUUUAGUUA | 1.18 ± 0.065 | 0.05 ± 0.008
UCCACCUACACCAUGCAUAGUAUUUAGUUA | 0.719 ± 0.036 | 0.0161 ± 0.003
UGGACCUAUAGCUUGCAUAGUAUUUAGUUA | 1.23 ± 0.054 | 0.0564 ± 0.011
UGGACCUACAGCUUGCAAUCUAUUUACAAA | 0.00236 ± 0.0045 | 0.000202 ± 0.014
UCGUCCUACACCUUGCAUAGUAUUUAGUUA | 0.986 ± 0.045 | 0.0586 ± 0.0084
UGGACCUACAGCCUGCAUAGUAUUUAGUUA | 1.34 ± 0.048 | 0.0741 ± 0.013
UGGACCUACAGCUUGCAUAGUAUUUAGUA | 0.885 ± 0.062 | 0.0273 ± 0.0069
UGGACCUACAGCUUGCAUACGUAUUUAGUUA | 0.00248 ± 0.0055 | 0.00051 ± 0.013
UCCACCUACAGCUUGCAUAGUAUUUCAGUUA | 0.691 ± 0.081 | 0.0139 ± 0.0037
UCGACCGACAGCUUGCAUAGUAUUUAGUUA | 1.41 ± 0.05 | 0.0741 ± 0.012
UCCAGCUACACCUUGCAUAGUAUUUAGUUA | 0.797 ± 0.034 | 0.0443 ± 0.0068
UGGACCUACAGCUUGCAUAGUAUAUAGUAA | 0.356 ± 0.038 | 0.012 ± 0.0037

Sequence | pre-steady-state target cleavage rate [1] | pre-steady-state target cleavage rate [2]
UCCACCUACAGCUUAGCAUAGUAUUUAGUUA | 1.02 ± 0.03 | 0.0144 ± 0.0034
AGGACCUACAGCAUGCAUAGUAUUUACAAA | 0.526 ± 0.066 | 0.00349 ± 0.0032
UCGUCCUACAGCAUGCAUAGUAUUUAGUUA | 1.26 ± 0.047 | 0.0282 ± 0.0049
UCCUGGAUGUCGUUGCAUAGUAUUGUAGUUA | 0.00141 ± 0.01 | 0.00106 ± 0.007
UCGACCAACAGCUUGCAUAGUAUUUAGAUA | 0.54 ± 0.029 | 0.0297 ± 0.0066
UCCACCUACAGCUUGCAUUCAAUUUAGUUA | 0.0179 ± 0.0084 | 0.00107 ± 0.0055
UCCUGGAUGUCGAACCAUACAUUUUAGUUA | 0.000198 ± 0.015 | 0.000113 ± 0.044
UCCUGGAUGUCGAUGCGUAGUAUUUAGUUA | 0.00103 ± 0.0071 | 0.000921 ± 0.0071
UGGACCUACAGCUACCAUAGUAUUUAGUUA | 0.493 ± 0.043 | 0.00241 ± 0.0021
AGCGACCUACAGCUUGCAUAGUAUUUAGUUA | 1.37 ± 0.049 | 0.112 ± 0.019
UCGACCUACUGCUUGCAUAGUAUUUAGUAA | 0.797 ± 0.036 | 0.0434 ± 0.0074
UCCACCUACAGCUUCGUUAGUAUUUAGAAA | 0.00242 ± 0.0056 | 0.000239 ± 0.012
UGGACGUACAGCUUGCUUAGUAUUUAGUUA | 1.37 ± 0.069 | 0.0454 ± 0.0082
AGGAGCUACAGCAUGCAUAGUAUUUAGUUA | 1.37 ± 0.058 | 0.0574 ± 0.01
UCCUGGUUGUGCUUGCAUAGUAUUUAGUUA | 0.584 ± 0.032 | 0.0455 ± 0.0097
UGCACCUAGAGCUUGCAUAGUAUUUAGUUA | 1.2 ± 0.25 | 0.0155 ± 0.0045
UGGACCUACAGCUUGCAUAGUAUUUCGUUA | 0.411 ± 0.054 | 0.0397 ± 0.0067
UCGACCUACAGCUUGCAUAGUAUUAUGUAA | 0.228 ± 0.057 | 0.00175 ± 0.0031
UCCACCUACAGCUCUGCAUAGUAUUUAGUUA | 0.862 ± 0.063 | 0.0214 ± 0.0048
UCCUGGAUGUCGUUGCAUAGUUUUUAGUAA | 0.000875 ± 0.011 | 0.000823 ± 0.0095

Sequence | pre-steady-state target cleavage rate [1] | pre-steady-state target cleavage rate [2]
UCCACGUACAGCUUGCAAAGUAUUUAGUUA | 1.19 ± 0.054 | 0.0439 ± 0.009
UCGACCUACAGCUUGCUAUGUAUUUUCAAA | 0.00299 ± 0.0043 | 0.000401 ± 0.012
UCGACGUUCAGCUUGCAUAGUAUUUAGUUA | 1.3 ± 0.036 | 0.0748 ± 0.015
AGGACCUACAGCUUGCAUGGUAUUUAGUUA | 1.35 ± 0.073 | 0.0615 ± 0.012
UCGACCUACAGCUUGCAUAGUAUUUAGUA | 0.778 ± 0.039 | 0.0159 ± 0.0051
UCCACCUACAGCUUGCAUAGUAUAUACAAA | 0.413 ± 0.089 | 0.0012 ± 0.0069
UCGACCUCACAGCUUGCAUAGUAUUUAGUUA | 1.38 ± 0.05 | 0.0855 ± 0.017
AGGACCUUCAGCUUCCAUAGUAUUUAGUUA | 0.101 ± 0.023 | 0.00546 ± 0.0024
AGGACCUACAGCUAGCAUAGUAUUUAGUAA | 0.836 ± 0.073 | 0.0193 ± 0.0066
UCGACCUACAGCUUGGUUAGUAUUUACAAA | 0.0826 ± 0.02 | 0.00101 ± 0.0065
AGGACCUACAGCCUGCAUAGUAUUUAGUUA | 1.51 ± 0.063 | 0.0892 ± 0.017
AGGAGCUACACCUUGCAUAGUAUUUAGUUA | 1.36 ± 0.044 | 0.0609 ± 0.012
AGCACGUACAGCUUGCAUAGUAUUUAGUUA | 1.28 ± 0.043 | 0.064 ± 0.011
UGGACCUACAGCUUGCAUAGGUAUUUAGUUA | 0.00335 ± 0.0047 | 0.000965 ± 0.0054
UCGACCUACACUUGCAUAGUAUUUAGUUA | 1.09 ± 0.045 | 0.0331 ± 0.0076
UCCUGGAACAGCUUGCAUUGUAAUUAGUUA | 0.375 ± 0.032 | 0.018 ± 0.006
UGGACGUACAGCUUGCAUAGUAUUAAGUUA | 0.721 ± 0.069 | 0.0383 ± 0.0073
UCCACCGUACAGCUUGCAUAGUAUUUAGUUA | 1.18 ± 0.054 | 0.0628 ± 0.012
AGGACCUACAGCUCGCAUAGUAUUUAGUUA | 1.35 ± 0.068 | 0.0694 ± 0.013
AGGACCUACAGCUUGGAUAGUAUUUAGAUA | 0.527 ± 0.057 | 0.0218 ± 0.0053

Full records from above.
UGGACCUACAGCUUGCAUAGGUAUUUAGUUA in the list: pre-steady-state target cleavage rate [1] = 0.00335 ± 0.0047; pre-steady-state target cleavage rate [2] = 0.000965 ± 0.0054
UGGACGUACAGCUUGCUUAGUAUUUAGUUA in the list: pre-steady-state target cleavage rate [1] = 1.37 ± 0.069; pre-steady-state target cleavage rate [2] = 0.0454 ± 0.0082
